PubChem BioAssay AID1224828 – NIAID – 2016

- Test: 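Regulators linking TLR4 signalling to p65 nuclear translocation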 (primary screen)
- System: mouse RAW264.7 G9 macrophage reporter cells (GFP-p65, Tnf promoter-mCherry)
- Knock-down reagent: siRNA pool against mouse genes, 100 nM
- Timing: 2 days siRNA transfection, then 40 min LPS before fixation
- Conditions: LPS (Salmonella minnesota R595) at 10 ng/ml
- Detection: 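Microscopy ratio of nuclear to perinuclear-ring GFP-p65 signal, scaled to the plate median; gene score is the average of two replicate robust z-scores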
- Reading the numbers: p65 translocation robust z-score: higher = more nuclear NF-kappaB p65 after LPS than the plate median; nuclear/cytoplasmic p65 ratio: higher = more nuclear NF-kappaB p65
- Rule for the call: 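Active if robust z is above 3.3 (negative regulators) or below -1.56, the Tlr4 control median (positive regulators); activity score 50 or more; control wells not called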
- Calls: active = hit (p65 shift raised or lowered); inactive = no clear change
The deposit covers about 17,000 reagents; this is a random part of them. 762 of them (4.5%) count as active. 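Active calls include both raised and lowered p65 entry, mostly lowered; wells with fewer than 50 cells lack a z-score.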 Raw values are not corrected between plates. Entries without a mark were called inactive.

Psg17 scored p65 translocation robust z-score 1.35; nuclear/cytoplasmic p65 ratio, rep 1 = 1.55; nuclear/cytoplasmic p65 ratio, rep 2 = 1.25; low cell count flag enough cells to score.
For Got2 the deposit lists p65 translocation robust z-score 1.41; nuclear/cytoplasmic p65 ratio, rep 1 = 1.55; nuclear/cytoplasmic p65 ratio, rep 2 = 1.76; low cell count flag enough cells to score.
With knock-down of Abhd5, the screen gave p65 translocation robust z-score -0.07; nuclear/cytoplasmic p65 ratio, rep 1 = 1.58; nuclear/cytoplasmic p65 ratio, rep 2 = 1.63; low cell count flag enough cells to score.
Knock-down of Mtpap gave: p65 translocation robust z-score 0.24; nuclear/cytoplasmic p65 ratio, rep 1 = 1.49; nuclear/cytoplasmic p65 ratio, rep 2 = 1.26; low cell count flag enough cells to score.
Against Fam174a the deposit lists nuclear/cytoplasmic p65 ratio, rep 1 = 1.6; nuclear/cytoplasmic p65 ratio, rep 2 = 1.01; low cell count flag fewer than 50 cells per well; well left out of scoring.
Against Diablo, the entry reads p65 translocation robust z-score 1.56; nuclear/cytoplasmic p65 ratio, rep 1 = 1.74; nuclear/cytoplasmic p65 ratio, rep 2 = 1.53; low cell count flag enough cells to score.
Nit2 gave p65 translocation robust z-score -0.24; nuclear/cytoplasmic p65 ratio, rep 1 = 1.38; nuclear/cytoplasmic p65 ratio, rep 2 = 1.38; low cell count flag enough cells to score.
Knock-down of Dlgap3 came out at: p65 translocation robust z-score -1.5; nuclear/cytoplasmic p65 ratio, rep 1 = 1.23; nuclear/cytoplasmic p65 ratio, rep 2 = 1.26; low cell count flag enough cells to score.
Cenps gave p65 translocation robust z-score -2.02 (active); nuclear/cytoplasmic p65 ratio, rep 1 = 1.22; nuclear/cytoplasmic p65 ratio, rep 2 = 1.11; low cell count flag enough cells to score.
For Nav3 the deposit lists p65 translocation robust z-score -1.26; nuclear/cytoplasmic p65 ratio, rep 1 = 1.16; nuclear/cytoplasmic p65 ratio, rep 2 = 1.37; low cell count flag enough cells to score.
For Nadsyn1 the deposit lists nuclear/cytoplasmic p65 ratio, rep 1 = 1.51; nuclear/cytoplasmic p65 ratio, rep 2 = 1.62; low cell count flag fewer than 50 cells per well; well left out of scoring.
Knock-down of Adam24 came out at: p65 translocation robust z-score -0.76; nuclear/cytoplasmic p65 ratio, rep 1 = 1.4; nuclear/cytoplasmic p65 ratio, rep 2 = 1.66; low cell count flag enough cells to score.
Silencing of Ubl7 resulted in: nuclear/cytoplasmic p65 ratio, rep 1 = 1.54; nuclear/cytoplasmic p65 ratio, rep 2 = 1.45; low cell count flag fewer than 50 cells per well; well left out of scoring.
Ube2r2 scored p65 translocation robust z-score 0.95; nuclear/cytoplasmic p65 ratio, rep 1 = 1.62; nuclear/cytoplasmic p65 ratio, rep 2 = 1.65; low cell count flag enough cells to score.
For Pum1, the values are p65 translocation robust z-score -0.69; nuclear/cytoplasmic p65 ratio, rep 1 = 1.28; nuclear/cytoplasmic p65 ratio, rep 2 = 1.15; low cell count flag enough cells to score.
For Gys2, the entry reads p65 translocation robust z-score -0.19; nuclear/cytoplasmic p65 ratio, rep 1 = 1.39; nuclear/cytoplasmic p65 ratio, rep 2 = 1.37; low cell count flag enough cells to score.
For Uap1, the values are nuclear/cytoplasmic p65 ratio, rep 1 = 1.46; nuclear/cytoplasmic p65 ratio, rep 2 = 1.14; low cell count flag fewer than 50 cells per well; well left out of scoring.
Or6c207 scored p65 translocation robust z-score 0.42; nuclear/cytoplasmic p65 ratio, rep 1 = 1.41; nuclear/cytoplasmic p65 ratio, rep 2 = 1.32; low cell count flag enough cells to score.
With knock-down of Eif2s3y, the screen gave p65 translocation robust z-score -1.02; nuclear/cytoplasmic p65 ratio, rep 1 = 1.31; nuclear/cytoplasmic p65 ratio, rep 2 = 1.25; low cell count flag enough cells to score.
Ints9 gave p65 translocation robust z-score 0.56; nuclear/cytoplasmic p65 ratio, rep 1 = 1.69; nuclear/cytoplasmic p65 ratio, rep 2 = 1.84; low cell count flag enough cells to score.
Silencing of Tpp2 came out at: p65 translocation robust z-score 0.01; nuclear/cytoplasmic p65 ratio, rep 1 = 1.39; nuclear/cytoplasmic p65 ratio, rep 2 = 1.17; low cell count flag enough cells to score.
Wiz gave p65 translocation robust z-score 0.24; nuclear/cytoplasmic p65 ratio, rep 1 = 1.4; nuclear/cytoplasmic p65 ratio, rep 2 = 1.28; low cell count flag enough cells to score.
With knock-down of Gpatch2, the screen gave p65 translocation robust z-score -0.3; nuclear/cytoplasmic p65 ratio, rep 1 = 1.55; nuclear/cytoplasmic p65 ratio, rep 2 = 1.54; low cell count flag enough cells to score.
Kat8 showed p65 translocation robust z-score -0.75; nuclear/cytoplasmic p65 ratio, rep 1 = 1.67; nuclear/cytoplasmic p65 ratio, rep 2 = 1.51; low cell count flag enough cells to score.
With knock-down of Fam72a, the record shows p65 translocation robust z-score -1.54; nuclear/cytoplasmic p65 ratio, rep 1 = 1.19; nuclear/cytoplasmic p65 ratio, rep 2 = 1.26; low cell count flag enough cells to score.
After knock-down of Acot12, the record shows p65 translocation robust z-score -0.2; nuclear/cytoplasmic p65 ratio, rep 1 = 1.6; nuclear/cytoplasmic p65 ratio, rep 2 = 1.56; low cell count flag enough cells to score.
For Abcb7 the deposit lists p65 translocation robust z-score -0.32; nuclear/cytoplasmic p65 ratio, rep 1 = 1.56; nuclear/cytoplasmic p65 ratio, rep 2 = 1.57; low cell count flag enough cells to score.
